# Assay results taken from paper PMC7862700.
# This is a selection; strong and weak results do not stand in their true shares. For part of these data: At the low end of the ranking the order means little. The list shows a part of the results. For part of these data: The source does not settle which construct or isoform was used.
# How the values were obtained:
# ELK4 = molecular target: T1, ELK4 (UniProt P28324-2); test: DAPPL (digital affinity profiling via proximity ligation, sequencing); conditions: 10 mM Tris-HCl pH 7.5, 50 mM NaCl, 1 mM DTT, 4% glycerol, room temperature, 30 min; GST-TFs on glutathione beads, 16-mer random dsDNA library, 0.1% …; high values mean tight binding; double strand, one strand shown; scale: fold enrichment (6-mer frequency, TF over GST control)
# T1 sequence: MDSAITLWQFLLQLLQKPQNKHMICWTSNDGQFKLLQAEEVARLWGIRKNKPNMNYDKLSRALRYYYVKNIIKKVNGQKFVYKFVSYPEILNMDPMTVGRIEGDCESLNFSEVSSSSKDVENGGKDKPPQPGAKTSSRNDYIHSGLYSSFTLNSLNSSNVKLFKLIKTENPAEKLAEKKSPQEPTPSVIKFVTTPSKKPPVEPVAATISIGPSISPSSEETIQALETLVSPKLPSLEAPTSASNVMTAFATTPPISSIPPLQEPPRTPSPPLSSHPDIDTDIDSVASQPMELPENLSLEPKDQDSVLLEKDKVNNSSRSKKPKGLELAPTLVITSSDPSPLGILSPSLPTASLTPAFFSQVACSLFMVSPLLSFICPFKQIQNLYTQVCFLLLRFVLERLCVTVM
# ETV4 = molecular target: T2, ETV4 (UniProt P43268); test: as above; conditions: 10 mM Tris-HCl pH 7.5, 50 mM NaCl, 1 mM DTT, 4% glycerol, room temperature, 30 min; GST-TFs on glutathione beads, 16-mer random dsDNA library, 0.1% …; high values mean tight binding; double strand, one strand shown; scale: fold enrichment (6-mer frequency, TF over GST control)
# T2 sequence: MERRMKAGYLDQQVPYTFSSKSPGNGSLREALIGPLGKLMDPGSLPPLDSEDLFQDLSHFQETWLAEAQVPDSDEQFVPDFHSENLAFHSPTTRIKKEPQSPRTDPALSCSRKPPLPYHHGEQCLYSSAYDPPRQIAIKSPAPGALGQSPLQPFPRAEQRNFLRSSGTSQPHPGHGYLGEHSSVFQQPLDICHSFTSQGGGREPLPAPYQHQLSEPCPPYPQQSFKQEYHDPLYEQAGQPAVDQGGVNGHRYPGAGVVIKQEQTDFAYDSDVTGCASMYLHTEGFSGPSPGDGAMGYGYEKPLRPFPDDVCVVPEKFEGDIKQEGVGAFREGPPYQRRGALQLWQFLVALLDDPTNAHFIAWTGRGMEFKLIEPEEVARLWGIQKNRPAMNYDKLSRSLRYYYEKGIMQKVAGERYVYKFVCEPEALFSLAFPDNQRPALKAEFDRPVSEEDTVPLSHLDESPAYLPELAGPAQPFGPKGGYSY
Sequence,binding signal (ELK4),binding signal (ETV4)
AGTCCC,0.971,1
CCTGTA,1.16,1.2
TAACTT,1.32,1.5
CTACAA,1.21,1.19
CCTAAC,1.36,1.41
AAACTC,1.04,1.23
CTTGCT,1.34,1.41
TATCCC,1.64,1.56
CTCGTC,1.57,1.37
TTACGC,1.04,1.1
TCCGAT,1.25,1.37
TAAACT,1.11,1.22
ACCTGA,1.14,1.17
TACAGG,1.26,1.12
ATAATG,1.16,1.02
ATTATA,1.29,1.23
GCTTCC,2.98,3.89
TGTTGT,1.24,1.08
AATATT,1.35,1.3
TCCGCC,1.45,1.63
GAAGCG,1.2,1.36
AACTAT,1.45,1.28
TACGGA,1.15,1.22

Sequence,binding signal (ELK4),binding signal (ETV4)
GTTTCA,1.28,1.31
TCAAAG,1.21,1.17
CAACGC,1.03,1.16
TTCCCG,1.69,1.92
TACCAT,1.27,1.05
TGGACT,1.25,1.26
CGATGT,0.99,1.09
AAGGAT,1.08,1.13
CACCGA,1.13,1.09
CAAAGC,1.24,1.06
TTGCTC,1.16,1.36
CACCTC,1.14,1.25
TAGATC,0.957,1
GTACTA,0.975,1.12
GCGCCC,1.02,1.13
GGATGC,1.13,1.23
TTGTTG,1.19,1.12
ACATTT,1.36,1.39
TACGGC,1.19,1.27
ACTGCA,1.25,1.14
ACTTCG,1.25,1.42
GAAAAC,1.16,1.05
AGCTCT,1.22,1.3

Sequence,binding signal (ELK4),binding signal (ETV4)
TTCTTA,1.5,1.32
TATCTT,1.38,1.25
TTTAAG,1.22,1.28
TACGCG,1.25,1.1
TTCTAA,1.22,1.19
TCTCAT,1.37,1.34
TCTTCG,1.45,1.69
TTGCTG,1.34,1.29
CCCGTC,0.992,1.11
GTACGC,0.989,1.13
ACCCGA,1.04,1.07
GCAACT,1.2,1.18
AATCTG,1.55,1.45
TTTTCC,1.62,1.6
ATTCGA,1.2,1.39
TCGTAT,0.899,0.971
CCGGCC,1.27,1.25
AACGCA,0.96,1.03
GCTTGT,0.972,1.18
ACTGGA,0.991,1
GGTTCC,1.38,1.63
AAAACG,1.19,1.12
GGATAT,1.48,1.67

Sequence,binding signal (ELK4),binding signal (ETV4)
TCCTAA,1.39,1.4
CGGTTC,1.29,1.38
GCTCCG,1.33,1.45
GTGTCT,0.824,1.04
AACTGA,0.976,1.08
CGTCAA,1.12,1.08
TTTGGA,1.14,1.18
TATTAC,1.31,1.19
CTATCG,1.09,1
AATCCT,1.33,1.25
CACCCC,1.47,1.25
AGCTGC,1.11,1.17
CGTATA,1.07,1.1
CGATCA,1.07,1.15
CATGAT,1.13,1.15
CATCAT,1.11,1.09
CGGCCT,1.13,1.24
ACCTGG,1.25,1.25
TATCGC,1.3,1.19
AATATA,1.39,1.27
TTTAAC,1.13,1.08
CGATGG,1.46,1.31
TGACCC,1.39,1.37

# Whole records, quoted from the list.
# TCGTAT is listed with binding signal (ELK4): 0.899; binding signal (ETV4): 0.971
# ACTGCA is listed with binding signal (ELK4): 1.25; binding signal (ETV4): 1.14
# TGGACT is listed with binding signal (ELK4): 1.25; binding signal (ETV4): 1.26
# TCCGCC is listed with binding signal (ELK4): 1.45; binding signal (ETV4): 1.63

# Carrying on:

Sequence,binding signal (ELK4),binding signal (ETV4)
AAGTAT,1.31,1.4
GACTCC,1.12,1.26
TTTAAT,1.35,1.18
CCACTA,1.06,1.09
GAAGAA,1.17,1.14
CCGGTC,1.18,1.22
CTATTT,1.88,1.65
CCGACG,1.22,1.28
AACTAC,1.32,1.53
ACTCGA,1.35,1.35
ACTTGG,1.28,1.22
GCCGCC,0.973,1.03
CGACTG,1.22,1.15
AGCGAT,1.07,1.08
TATAGA,1,1.09
AATATC,1.48,1.58
GAATTG,1.04,1.08
ATTCCA,1.19,1.19
ACGGCA,0.922,1.02
CTCGAC,1.49,1.51
CGGCAT,1.1,1.13
TTATGG,1.24,1.44
